No constants are given. Whether binding was seen depends on the method and setting. For part of these data: In cells and extracts the contact can be indirect. Some entries that bind do so weakly or less than the wild type. For part of these data: Tags and fused reporters may be left off the sequences shown.

The chains behind the UniProt entries cited, without tags or fusion partners.
UniProt Q9Y3P9: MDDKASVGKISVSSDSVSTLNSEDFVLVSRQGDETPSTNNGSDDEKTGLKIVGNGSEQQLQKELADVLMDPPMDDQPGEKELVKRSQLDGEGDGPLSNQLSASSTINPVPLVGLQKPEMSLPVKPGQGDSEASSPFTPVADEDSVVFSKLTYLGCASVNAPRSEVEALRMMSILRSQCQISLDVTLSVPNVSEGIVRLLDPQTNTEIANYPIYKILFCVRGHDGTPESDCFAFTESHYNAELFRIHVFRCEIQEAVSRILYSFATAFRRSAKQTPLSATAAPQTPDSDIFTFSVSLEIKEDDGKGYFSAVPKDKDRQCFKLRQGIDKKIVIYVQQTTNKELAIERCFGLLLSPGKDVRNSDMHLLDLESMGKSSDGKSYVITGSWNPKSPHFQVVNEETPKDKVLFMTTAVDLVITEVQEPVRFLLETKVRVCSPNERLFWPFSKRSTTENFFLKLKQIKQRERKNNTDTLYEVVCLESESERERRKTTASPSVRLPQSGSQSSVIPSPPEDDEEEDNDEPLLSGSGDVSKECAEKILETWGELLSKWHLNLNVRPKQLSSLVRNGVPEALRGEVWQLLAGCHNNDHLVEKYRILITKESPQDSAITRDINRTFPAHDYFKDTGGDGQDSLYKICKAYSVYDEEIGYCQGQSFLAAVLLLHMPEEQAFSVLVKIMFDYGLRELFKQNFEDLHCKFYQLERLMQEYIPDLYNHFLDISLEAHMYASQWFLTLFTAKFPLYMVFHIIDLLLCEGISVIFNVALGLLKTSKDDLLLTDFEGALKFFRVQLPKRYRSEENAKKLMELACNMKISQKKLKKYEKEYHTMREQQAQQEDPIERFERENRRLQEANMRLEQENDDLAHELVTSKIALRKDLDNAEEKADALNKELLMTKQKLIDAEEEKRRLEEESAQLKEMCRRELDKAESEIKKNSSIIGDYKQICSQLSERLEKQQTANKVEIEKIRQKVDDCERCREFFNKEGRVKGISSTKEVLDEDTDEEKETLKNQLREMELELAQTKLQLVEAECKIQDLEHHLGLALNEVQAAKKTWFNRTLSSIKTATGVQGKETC

These results are taken from article PMC5798889.

In assay [1] the target is T1, tuftelin 1 (TUFT1), exogenously expressed in HEK293T cells (human) (UniProt Q9NNX1).
T1 sequence: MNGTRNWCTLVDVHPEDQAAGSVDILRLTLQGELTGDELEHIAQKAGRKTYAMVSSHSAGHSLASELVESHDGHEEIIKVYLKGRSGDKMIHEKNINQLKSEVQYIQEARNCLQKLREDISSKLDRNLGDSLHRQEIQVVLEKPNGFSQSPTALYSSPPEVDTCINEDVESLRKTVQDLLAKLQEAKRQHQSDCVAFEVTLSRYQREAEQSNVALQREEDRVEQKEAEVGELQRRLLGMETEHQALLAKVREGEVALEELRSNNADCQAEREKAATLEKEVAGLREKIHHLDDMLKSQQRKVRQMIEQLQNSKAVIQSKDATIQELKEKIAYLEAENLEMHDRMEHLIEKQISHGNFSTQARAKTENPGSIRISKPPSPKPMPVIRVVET
The assay is described as follows: co-IP; exogenously expressed RABGAP1 and TUFT1 in HEK293T cells; lysis buffer 1% NP-40, 150 mM NaCl, 20 mM Tris-HCl pH 7.5; which protein was precipitated not given.

Assay [2] addresses T2, endogenous TUFT1 in A549 cells (human (endogenous in A549)) (UniProt Q9NNX1).
T2 sequence: T1 sequence
Kind of assay: co-IP; endogenous proteins in lysates of A549 cells transfected with the indicated siRNAs; immunoprecipitation with TUFT1 antibody, HA antibody beside it; immunoblot of the precipitates. On the technique in general: Immunoblotting shows a protein as a band on a membrane.

The next assay addresses T3, GST-10xHis-TUFT1 (human) (UniProt Q9NNX1).
T3 sequence: T1 sequence
Kind of assay: pull-down; GST pull-down with GST-10xHis-TUFT1 or control GST and recombinant RABGAP1; RIPA buffer (50 mM Tris-HCl pH 8.0, 150 mM NaCl, 0.1% SDS, 0.5% DOC, 1% Triton X-100); detection by immunoblotting; both purified.

Regarding “RABGAP1, exogenously expressed in HEK293T cells (from UniProt Q9Y3P9 1-1069)”, the binding result in assay [1] is reported as “binds”.

“endogenous RABGAP1 in A549 cells (from UniProt Q9Y3P9 1-1069)”: the binding result in assay [2] is listed as “binds”.

For the substance “recombinant RABGAP1 (Abcam #ab161730) (from UniProt Q9Y3P9 1-1069)”, the binding result with GST-10xHis-TUFT1 (human) was “binds”.
